Hit rate of the full screen: of about 1,400 compounds, about 140 (10%) were called active.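 The calls were made as follows: active = Half-maximal inhibitory dose from the fit at or below ten times the top valid tested dose; inconclusive = Invalid fit, or flat curve showing 30 to 70% inhibition; inactive = the rest.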 The entries are a selection whose mix differs from that of the whole data set. Potency and affinity values are given separately. Where a SMILES comes first, the peptide text is derived from it. The star is where a group is joined. Boc = CC(C)(C)OC(=O)*

Amino acid sequences for entries named in this document (tags omitted). Residues count along the entry.
UniProt Q9H3R0, 1-420 limits assumed: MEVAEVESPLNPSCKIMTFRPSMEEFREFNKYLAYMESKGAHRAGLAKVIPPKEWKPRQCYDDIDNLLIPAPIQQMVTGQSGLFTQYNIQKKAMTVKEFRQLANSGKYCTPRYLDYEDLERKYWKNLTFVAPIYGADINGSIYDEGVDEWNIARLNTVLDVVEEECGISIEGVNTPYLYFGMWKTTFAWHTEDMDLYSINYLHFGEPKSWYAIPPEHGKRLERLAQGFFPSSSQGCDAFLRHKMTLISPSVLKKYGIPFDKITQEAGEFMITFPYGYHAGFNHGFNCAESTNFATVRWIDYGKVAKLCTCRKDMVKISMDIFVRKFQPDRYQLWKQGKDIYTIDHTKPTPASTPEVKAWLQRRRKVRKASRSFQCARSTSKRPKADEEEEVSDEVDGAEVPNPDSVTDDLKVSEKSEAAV

In this experiment the target is Lysine-specific demethylase 4C (Homo sapiens) (UniProt Q9H3R0). Kind of experiment: inhibition of JMJD2C H3K9me3 demethylation – biochemical, DELFIA europium, cherry-picked samples, dose response (AID 488835).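 Also: signal is the H3K9me2 demethylation product detected by a dimethyl-specific antibody.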 Conditions: GST-JMJD2C(1-420); at 6 µM (top of the series) unless noted.
On to `O=C(N/N=C/c1nn(-c2ccccc2)cc1-c1ccccc1)c1ccncc1`, for which the activity change, negative = inhibition was inactive: 0.372%.
Consider `CCn1c(SCC(=O)N2CCc3ccccc32)nnc1-c1ccco1`, for which the activity change, negative = inhibition is inactive: 9.2%.
Regarding `COc1ccc(NC(=O)Nc2cccc3c2O[C@H](CN(C)C(=O)NC(C)C)[C@@H](C)CN([C@H](C)CO)C3=O)cc1`, the activity change, negative = inhibition is inactive: 4.2%.
In the case of `CCOC(=O)CSc1nc2sc(C)c(C)c2c(=O)[nH]1`, the activity change, negative = inhibition was inactive: -3.88%.
The result for `CSC1=NCCN1C(=O)c1cccc(C(F)(F)F)c1` reads inactive: -2.7%; that for `Cc1cccc(N2CC(C(=O)Nc3nnc(SCC(=O)Nc4nccs4)s3)CC2=O)c1` (stereo not drawn), inactive: -2.27%.
The result for `CC1=NN(c2nc(-c3ccc(C#N)cc3)cs2)C(=O)C1` reads inactive: -1.21%; that for `CC(C)(C)NC(=O)CSc1nc2cccnc2n1C1CCCCC1`, inactive: -2.77% [at 1.6 µM]; that for `Cc1sc2ncnc(NCCCO)c2c1C`, inactive: 5.97%.
The result for `Cc1cccc(C)c1NS(=O)(=O)c1cc2c3c(c1)CC(=O)N3CCC2` reads inactive: 3.44%; that for `CCn1cnc2sc(C(=O)Nc3ccc4c(c3)OCO4)c(C)c2c1=O`, inactive: -3.87%; that for `O=C(Nc1cccnc1)c1ccccc1Oc1ccccc1`, inactive: 6.39%.
Turning to `COc1cc2[nH]c(=O)n(CCCCCC(=O)NCCCN3CCCC3=O)c(=O)c2cc1OC`, the activity change, negative = inhibition was inactive: 1.31%.
Next, `Cc1sc2nc(CN3CCOCC3)nc(NS(=O)(=O)c3cc(Cl)ccc3Cl)c2c1C`: inactive: 2.96%.
Next, `O=C(CSc1nc(-c2ccco2)cc(C(F)(F)F)n1)Nc1ccc(C(=O)N2CCCCC2)cc1`: inactive: -0.0352%.
The result for `Cc1ccc(S(=O)(=O)Nc2ccc3c(c2)C(=O)N([C@H](C)CO)C[C@H](C)[C@@H](CN(C)Cc2ccc(-c4ccccc4)cc2)O3)cc1` reads inactive: 7.33%; that for `CC(=O)c1c(Nc2ccccc2)sc(C(=O)c2ccccc2)c1C`, inactive: -1.31%.
Consider `COc1ccc(-c2cc3c(=O)n(CC(=O)NCc4cccnc4)nc(C)n3n2)cc1`, for which the activity change, negative = inhibition is inactive: 0.732% [at 1.6 µM].
Next, `COc1ccc(C(=O)N2CCC(C(=O)NCc3ccccn3)CC2)cc1`: inactive: 3.25%.
Take `COc1cc(-c2nnco2)cc(OC)c1OC`: the activity change, negative = inhibition is inactive: 5.49%.
The result for `COc1ccccc1OCCOCCn1cnc2ccccc2c1=O` reads inactive: -6.98%; that for `C[C@H](CO)N1C[C@H](C)[C@@H](CN(C)Cc2ccc(Cl)c(Cl)c2)Oc2c(NS(=O)(=O)c3cn(C)cn3)cccc2C1=O`, inactive: 4.5%; that for `COc1cccc(C(c2c(C)[nH]n(-c3ccccc3)c2=O)c2c(C)[nH]n(-c3ccccc3)c2=O)c1O`, inactive: -11.1%.
The result for `O=C(COC(=O)c1cccc(S(=O)(=O)NCc2ccccc2)c1)Nc1ccccc1OC(F)F` reads inactive: -0.0575%; that for `CCC(C)C(NC(=O)OC(C)(C)C)C(=O)NC(C(=O)N1CCCC1C(N)=O)C(C)CC` (stereo not drawn) (Boc-Ile-Ile-Pro-NH2; configuration not given here), inactive: 8.44%; that for `CCOc1cc(NC(=O)c2ccco2)c(OCC)cc1NC(=O)c1ccco1`, inactive: -6.78%.
In the case of `Cc1ccccc1C(=O)OCCCN=C1NS(=O)(=O)c2ccccc21`, the activity change, negative = inhibition was inactive: 8.73%.
The result for `COC(=O)[C@]1(Cc2ccccc2)N[C@H](CN(C)C(=O)Nc2ccccc2)[C@@H]2C(=O)N(C)C(=O)[C@@H]21` reads inactive: -3.93%.
For `CCNC(=O)C/C(C)=N/NC(=O)C12CC3CC(CC(C3)C1)C2`, the activity change, negative = inhibition is inactive: -5.28%.
On to `CCN(CC)S(=O)(=O)c1ccc(N2CCOCC2)c(NC(=O)c2ccc3c(c2)OCCO3)c1`, for which the activity change, negative = inhibition was inactive: 4.55%.
As for `Cc1c(C(=O)Nc2ccc3c(c2)OCO3)sc2ncn(CC(=O)N3CC(C)CC(C)C3)c(=O)c12` (stereo not drawn), the activity change, negative = inhibition was inactive: 12.4%.
The result for `CN1C(=O)Cc2cc(S(=O)(=O)NCCc3ccc(Cl)cc3)ccc21` reads inactive: -0.124%; that for `COc1cc(NS(=O)(=O)c2ccc(NC(=O)c3ccc(C)o3)cc2)nc(OC)n1`, inactive: 7.65%; that for `Cc1ccc(CNC(=O)CCC2CCCN(Cc3ccc4cccc(F)c4n3)C2)o1` (stereo not drawn), inactive: 6.45%.
As for `COc1ccc(OC)c(Nc2nc(-c3cccs3)cs2)c1`, the activity change, negative = inhibition is inactive: -4.95%.
Take `C#CCOCCOCCOCCNc1nc(N2CCN(C(=O)[C@H](CCCCN)n3cc(CN)nn3)CC2)nc(N2CCN(C(=O)[C@H](CCC(=O)O)n3cc([C@@H](N)CCSC)nn3)CC2)n1`: the activity change, negative = inhibition is inactive: -9.04%.
For `COCCNC(=S)N1CCN(C)CC1`, the activity change, negative = inhibition was inactive: -0.745%.
With `COc1ccc(C(=O)NCc2nnc(SCC(=O)N3CCc4ccccc43)o2)cc1OC`, the activity change, negative = inhibition was inactive: 2.47%.
In the case of `c1cc2c(cc1C1CCCCC1)c1c3n2CCCNC3CCC1` (stereo not drawn), the activity change, negative = inhibition is inactive: -0.182%.
Next, `CC(C)c1ccc(NC2CCCN(C(=O)CCN3CCCCC3=O)C2)cc1` (stereo not drawn): inactive: 16.1%; `CC1(C)CC(=O)C2=C(C1)OC(N)=C(C#N)C2C#Cc1ccccc1` (stereo not drawn): inactive: 8.11%.
In the case of `COc1ccc(CCNC(=O)c2cccc(NS(=O)(=O)c3ccccc3F)c2)cc1OC`, the activity change, negative = inhibition was inactive: -3.93%.
As for `COc1ccc(C(C(C(=O)c2ccco2)N2CCOCC2)N2CCOCC2)cc1` (stereo not drawn), the activity change, negative = inhibition is inactive: 5.71%.
Next, `COc1ccc(/C=C(/C(=O)NCc2ccccc2)c2ccccc2)cc1`: inactive: 5.38%; `CCOC(=O)c1[nH]c(CSc2nnnn2-c2ccccc2C)c(C(=O)OCC)c1C`: inactive: 1.98%.
`O=C(NCC1CCCO1)Nc1ccccc1` (stereo not drawn): the activity change, negative = inhibition was inactive: -2.2%.
On to `O=C(CC1C[C@H](C(=O)N2CCCCC2)[C@@]2(CCc3ccccc3)c3[nH]c4ccccc4c3CCN2C1=O)NCCC1=CCCCC1` (stereo partly drawn), for which the activity change, negative = inhibition was inactive: -4.94%.
Next, `Nc1ncnc2c1ncn2[C@@H]1O[C@H](CNCC#Cc2ccccc2)[C@@H](O)[C@H]1O`: inactive: 2.42%; `O=C(O)CSc1nnc(COc2cccc3cccnc23)n1-c1cccc(C(F)(F)F)c1`: inactive: -0.453%; `Cc1nnc(N2C(=O)C(=O)/C(=C(/O)c3ccc4c(c3)CC(C)O4)C2c2ccccc2F)s1` (stereo not drawn): inactive: 8.44%.
Next, `CCN(C[C@H]1N[C@@](C)(C(=O)OC)[C@H]2C(=O)N(C)C(=O)[C@@H]12)C(=O)Nc1ccc(C)cc1`: inactive: 0.134%; `O=C1C=C(NCc2ccc3c(c2)OCO3)CC(c2ccccc2)C1` (stereo not drawn): inactive: -0.693%; `C=CCNCCOc1cccc(Br)c1`: inactive: 2.08%.
Take `CC(C)CCSc1cc(NCCO)c([N+](=O)[O-])c2nonc12`: the activity change, negative = inhibition was inactive: 1.05%.
Take `Cc1noc(C)c1C(=O)Nc1ccc2ccccc2c1`: the activity change, negative = inhibition is inactive: 3.03%.
The result for `Cc1ccc(S(=O)(=O)N2CCOCC2)cc1C(=O)NNC(=O)c1ccoc1C` reads inactive: 6.61%; that for `Cc1cc(Cl)c(S(=O)(=O)Nc2ccc3c(c2)OCCO3)cc1OCC(N)=O`, inactive: -0.843%.
Regarding `C[C@H](CO)N1C[C@H](C)[C@@H](CN(C)C(=O)Nc2ccc3c(c2)OCO3)Oc2ccc(NC(=O)Cn3cnnn3)cc2C1=O`, the activity change, negative = inhibition was inactive: 2.66%.
The result for `COc1cccc(/C=C/C(=O)OCC(=O)NCc2ccc(Cl)cc2)c1` reads inactive: 0.388%; that for `COc1ccc(NC(=O)Nc2ccc3c(c2)C(=O)N([C@H](C)CO)C[C@H](C)[C@@H](CN(C)S(=O)(=O)c2cccs2)O3)cc1`, inactive: 8.17%.
As to `COc1ccc(/C=N/NC(=O)c2cc(C)on2)c2ccccc12`, the activity change, negative = inhibition is inactive: -1.79%.
Next, `COc1cc2c(cc1OC)C1=C(C#N)COCN1CC2`: inactive: 0.413%; `CCCC(=O)Nc1nc2c(c(=O)[nH]1)CCCC2`: inactive: -0.233%.
Regarding `O=C(NC1(O)C(=O)c2ccccc2C1=O)c1c(Cl)cccc1Cl`, the activity change, negative = inhibition was inactive: 6.07%.
The result for `CCN(CC)C(=O)N1CCc2ccccc2C1CN1C(=O)c2ccccc2C1=O` (stereo not drawn) reads inactive: -0.118%; that for `CCCCCCc1cc2cc(-c3nnc(-c4ccccc4)o3)c(=O)oc2cc1O`, inactive: -1.96%; that for `CCOC(=O)c1nc(C)n(-c2cc(Cl)ccc2Cl)n1`, inactive: 6.96%.
Regarding `O=C(NCC(=O)N1CCCCC1)c1sc2ccccc2c1Cl`, the activity change, negative = inhibition was inactive: 0.7%.
With `COC(=O)C1=C(C)N(CCc2cc(OC)c(OC)c(OC)c2)C(=O)N[C@H]1c1cccs1`, the activity change, negative = inhibition was inactive: 11.2%.
The result for `CCN(CCNS(=O)(=O)c1ccc2c(c1)oc(=O)n2C)c1ccccc1` reads inactive: 1.56%.
Next, `COc1cccc(-n2nnc3c(=O)n(Cc4ccccc4F)cnc32)c1`: inactive: 4.46%; `CN(C)S(=O)(=O)c1ccc(NC(=S)NC(=O)C2CCC2)cc1`: inactive: 10.1%; `CN(C)S(=O)(=O)c1ccc(N2CCCC2)c(C(=O)Nc2nc3ccc(F)cc3s2)c1`: inactive: 0.98%.
Turning to `N=c1n(CCCOc2ccccc2Cl)c2ccccc2n1CC(N)=O`, the activity change, negative = inhibition is inactive: 9.23%.
Next, `C[C@H](CO)N1C[C@H](C)[C@@H](CN(C)S(=O)(=O)c2cn(C)cn2)Oc2ccc(NC(=O)C3CC3)cc2C1=O`: inactive: 5.52%; `CCCCC(=O)NC(NC(=S)N1CCOCC1)C(Cl)(Cl)Cl` (stereo not drawn): inactive: 2.74%.
For `C[C@H](CO)N1C[C@H](C)[C@@H](CN(C)S(=O)(=O)c2ccc(F)cc2)Oc2ccc(NS(=O)(=O)c3cccs3)cc2C1=O`, the activity change, negative = inhibition is inactive: -0.685%.
Next, `CC1CN(C)C(C)CC1NCc1ccc2c(c1)OCO2` (stereo not drawn): inactive: -4.65%.
The result for `CN(C)c1cccc(C(=O)Nc2cc(C(F)(F)F)ccc2-n2cnc3ccccc32)c1` reads inactive: 8.67%.
Next, `CC(=O)NS(=O)(=O)c1ccc(NC(=O)CSc2ccc(Cl)cc2)cc1`: inactive: -0.152%; `O=C(COC(=O)C1(c2ccc(Cl)cc2)CCCC1)NC1CCS(=O)(=O)C1` (stereo not drawn): inactive: 6.75%; `Cc1cccc2sc(NNC(=O)c3cc(=O)c4ccccc4o3)nc12`: inactive: -7.12%.
Consider `CC(=O)N1CCN(c2ccc([N+](=O)[O-])c(-n3nc(C)cc3C)c2)CC1`, for which the activity change, negative = inhibition was inactive: 3.15%.
